Results are given in words; binding and its absence hold for the method and conditions named.
Target: IGF
Experiment: ELISA of purified hFab 6.5 on a panel of coated antigens, absorbance 450 nm

B1: hFab 6.5 (Fab, V domains shown)
VH: QVQLVQSGGGLVKPGGSLRLSCAASGFTFTSYAMSWVRQAPGKGLEWVSAISGSGGSTYYADSVKGRFTISRDNPKNTLYLQMNSLRAEDTAVYYCARVRANYYYGMDVWGQGTLVTVSS
VL: LTQSPGTLSLSPGERATLSCRASQSVSSSTLAWYQQKPGQTPRLLIYGASTRATGIPARFSGSGSGTDFTLTISRLEPEDFAVYYCQQYGSSRLTFGGGTKVEIKR
binding: no binding (tested: 10 ug/ml)
